Assay results: article PMC11844651, “How RAG1/2 evolved from ancestral transposases to initiate V(D)J recombination without transposition” (Research Square, 2025)
These are yes or no findings as the source states them, for the method shown. Some binding calls cover weakened binding; strength is not graded here.

Molecular target: T1, mouse RAG1 (aa 265–1040) (mouse, UniProt P15919 265-1040)
T1 sequence (looked up): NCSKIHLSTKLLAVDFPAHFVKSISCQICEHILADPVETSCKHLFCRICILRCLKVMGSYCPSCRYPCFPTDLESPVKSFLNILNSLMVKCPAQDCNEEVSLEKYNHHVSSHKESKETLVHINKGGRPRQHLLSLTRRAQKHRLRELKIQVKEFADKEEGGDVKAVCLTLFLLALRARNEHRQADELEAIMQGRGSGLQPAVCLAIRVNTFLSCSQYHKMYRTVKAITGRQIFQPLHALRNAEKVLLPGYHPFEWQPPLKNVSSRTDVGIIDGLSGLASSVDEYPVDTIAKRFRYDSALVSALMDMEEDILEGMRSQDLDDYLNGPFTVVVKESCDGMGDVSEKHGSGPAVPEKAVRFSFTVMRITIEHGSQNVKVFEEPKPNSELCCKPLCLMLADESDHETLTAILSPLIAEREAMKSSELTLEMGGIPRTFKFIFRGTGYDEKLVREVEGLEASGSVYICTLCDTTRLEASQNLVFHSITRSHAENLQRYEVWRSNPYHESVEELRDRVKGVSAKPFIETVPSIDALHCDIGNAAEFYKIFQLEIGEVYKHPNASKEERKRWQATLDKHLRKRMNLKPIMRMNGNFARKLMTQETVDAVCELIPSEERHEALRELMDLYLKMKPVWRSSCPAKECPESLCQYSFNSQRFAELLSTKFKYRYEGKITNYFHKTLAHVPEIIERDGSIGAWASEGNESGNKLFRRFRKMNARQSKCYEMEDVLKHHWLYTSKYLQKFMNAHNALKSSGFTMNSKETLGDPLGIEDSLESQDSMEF
Test: cryo-EM structure; Signal-End Complex (SEC): MBP-mRAG (RAG1 and RAG2 co-expressed and co-purified), pre-cleaved 12- and 23-RSS signal end DNAs and HMGB1 (aa 1–163) mixed in 20 mM HEPES pH 7.4, 100 mM KCl, 5 mM CaCl2, 37°C 10 min, no H3K4me3 peptide; purified on Superdex 200 Increase; classes SEC-0, SEC-PHD, SEC-1DNA, SEC-2DNA; both purified

binding: binds
B1: mouse T490A RAG2 (aa 1–520) (natural protein, UniProt P21784 1-520, looked up)
chain: MSLQMVTVGHNIALIQPGFSLMNFDGQVFFFGQKGWPKRSCPTGVFHFDIKQNHLKLKPAIFSKDSCYLPPLRYPATCSYKGSIDSDKHQYIIHGGKTPNNELSDKIYIMSVACKNNKKVTFRCTEKDLVGDVPEPRYGHSIDVVYSRGKSMGVLFGGRSYMPSTQRTTEKWNSVADCLPHVFLIDFEFGCATSYILPELQDGLSFHVSIARNDTVYILGGHSLASNIRPANLYRIRVDLPLGTPAVNCTVLPGGISVSSAILTQTNNDEFVIVGGYQLENQKRMVCSLVSLGDNTIEISEMETPDWTSDIKHSKIWFGSNMGNGTIFLGIPGDNKQAMSEAFYFYTLRCSEEDLSEDQKIVSNSQTSTEDPGDSTPFEDSEEFCFSAEATSFDGDDEFDTYNEDDEDDESVTGYWITCCPTCDVDINTWVPFYSTELNKPAMIYCSHGDGHWVHAQCMDLEERTLIHLSEGSNKYYCNEHVQIARALQAPKRNPPLQKPPMKSLHKKGSGKVLTPAKKS
